Laboratory results: publication PMC9223676
Results are given in words; binding and its absence hold for the method and conditions named. Binding seen in cells or lysates may run through a third protein.

Sequences of proteins named here, by UniProt entry; tags and fusion partners are left off. A change or cut given only in a name is not applied to a line headed by its entry. A line that says so, or that is headed by a name, gives the form on record, which may keep a tag or linker.
full-length PAR1b (PAR1b-FL), epitope-tagged, expressed in cells (Q7KZI7-14, form named): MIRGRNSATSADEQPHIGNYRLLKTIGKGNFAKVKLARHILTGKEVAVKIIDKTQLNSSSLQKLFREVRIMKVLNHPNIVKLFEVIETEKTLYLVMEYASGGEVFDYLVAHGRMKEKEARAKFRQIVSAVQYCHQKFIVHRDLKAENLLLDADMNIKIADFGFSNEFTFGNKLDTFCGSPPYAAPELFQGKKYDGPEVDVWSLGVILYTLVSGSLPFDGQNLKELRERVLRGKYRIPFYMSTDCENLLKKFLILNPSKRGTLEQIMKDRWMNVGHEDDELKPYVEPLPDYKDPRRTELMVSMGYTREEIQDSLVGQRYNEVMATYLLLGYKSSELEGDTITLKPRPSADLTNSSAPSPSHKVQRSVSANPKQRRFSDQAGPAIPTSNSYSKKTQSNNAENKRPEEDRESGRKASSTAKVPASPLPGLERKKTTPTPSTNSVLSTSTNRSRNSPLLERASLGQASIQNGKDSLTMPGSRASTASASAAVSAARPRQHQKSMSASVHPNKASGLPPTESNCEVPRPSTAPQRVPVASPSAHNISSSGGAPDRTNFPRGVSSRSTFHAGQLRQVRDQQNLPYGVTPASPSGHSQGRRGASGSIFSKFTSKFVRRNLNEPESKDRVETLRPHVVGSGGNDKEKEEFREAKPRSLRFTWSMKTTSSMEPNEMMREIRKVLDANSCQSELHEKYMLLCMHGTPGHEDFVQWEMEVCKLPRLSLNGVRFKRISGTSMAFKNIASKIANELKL

Biological target: FLAG-PAR1b-∆spacer (UniProt Q7KZI7)
Test: co-IP; AGS cells transiently co-transfected, total cell lysate after 24 h, anti-FLAG immunoprecipitation, immunoblot for the T7-tagged copy; also after transfection of 2 µg/mL 3000 nt ssDNA or 3000 bp dsDNA for 5 h, and in AGS cells stably expressing EBERs (FLAG- and HA-tagged copies)

binding: no binding
Substance: full-length PAR1b (PAR1b-FL), epitope-tagged, expressed in cells (from UniProt Q7KZI7-14 1-745)
